Laboratory results published in paper doi:10.1101/2024.10.25.620210.
No constants are given. Whether binding was seen depends on the method and setting. Binding seen in cells or lysates may run through a third protein. Here binding means that the protein was enriched with, or labelled near, the bait; the list need not be complete. For some assays here: Tags and fused reporters may be left off the sequences shown.

Protein sequences, listed by entry. Tags and fused reporters are not part of them. Residues count along the entry.
UniProt P17745, residues 68-476: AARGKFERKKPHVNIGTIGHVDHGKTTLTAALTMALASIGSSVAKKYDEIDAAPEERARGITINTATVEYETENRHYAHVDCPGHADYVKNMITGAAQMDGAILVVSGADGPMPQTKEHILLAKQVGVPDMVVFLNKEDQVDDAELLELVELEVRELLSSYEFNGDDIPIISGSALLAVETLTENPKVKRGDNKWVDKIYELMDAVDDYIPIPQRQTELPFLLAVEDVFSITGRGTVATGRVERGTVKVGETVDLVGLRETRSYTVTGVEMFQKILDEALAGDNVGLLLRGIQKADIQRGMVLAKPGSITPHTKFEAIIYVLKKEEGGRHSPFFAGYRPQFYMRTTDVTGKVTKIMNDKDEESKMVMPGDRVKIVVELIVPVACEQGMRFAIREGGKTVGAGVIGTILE
UniProt Q9LJE4, residues 51-596: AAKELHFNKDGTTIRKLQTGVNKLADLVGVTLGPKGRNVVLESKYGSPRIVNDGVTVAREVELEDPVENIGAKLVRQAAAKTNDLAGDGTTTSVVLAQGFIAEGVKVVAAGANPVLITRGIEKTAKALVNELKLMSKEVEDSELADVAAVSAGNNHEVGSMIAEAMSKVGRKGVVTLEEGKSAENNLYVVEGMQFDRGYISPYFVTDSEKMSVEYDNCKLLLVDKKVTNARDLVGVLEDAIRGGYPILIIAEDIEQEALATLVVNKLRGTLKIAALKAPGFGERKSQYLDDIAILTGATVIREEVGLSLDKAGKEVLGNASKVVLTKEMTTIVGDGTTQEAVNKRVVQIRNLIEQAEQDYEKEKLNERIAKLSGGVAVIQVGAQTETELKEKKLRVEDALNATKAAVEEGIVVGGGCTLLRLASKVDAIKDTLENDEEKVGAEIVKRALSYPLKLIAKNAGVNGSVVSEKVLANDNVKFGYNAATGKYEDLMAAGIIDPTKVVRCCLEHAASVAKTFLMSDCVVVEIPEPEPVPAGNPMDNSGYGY

T1: stλP8 (cTP8-2xStrep-HA-TurboID-A10 linker-PAP8) (Arabidopsis thaliana) (UniProt Q9XI19)
T1 sequence: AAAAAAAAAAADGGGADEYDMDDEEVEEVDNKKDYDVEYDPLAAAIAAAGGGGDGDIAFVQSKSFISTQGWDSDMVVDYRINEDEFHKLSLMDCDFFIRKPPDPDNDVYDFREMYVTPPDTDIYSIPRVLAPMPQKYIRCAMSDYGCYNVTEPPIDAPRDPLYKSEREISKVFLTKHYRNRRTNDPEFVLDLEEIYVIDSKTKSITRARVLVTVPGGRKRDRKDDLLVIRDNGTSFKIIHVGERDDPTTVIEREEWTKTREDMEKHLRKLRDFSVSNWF

T2: sP8 (cTP8-2xStrep-PAP8) (Arabidopsis thaliana) (UniProt Q9XI19)
T2 sequence: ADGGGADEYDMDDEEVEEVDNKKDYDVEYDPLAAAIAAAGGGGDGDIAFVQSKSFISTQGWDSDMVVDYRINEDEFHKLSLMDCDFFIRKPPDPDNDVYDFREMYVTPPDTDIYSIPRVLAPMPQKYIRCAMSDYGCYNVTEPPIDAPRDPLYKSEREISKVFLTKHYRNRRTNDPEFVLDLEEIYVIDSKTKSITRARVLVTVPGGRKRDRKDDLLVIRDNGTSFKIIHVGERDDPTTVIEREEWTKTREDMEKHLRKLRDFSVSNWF


How the values were obtained:
[1] = molecular target: T1, stλP8 (cTP8-2xStrep-HA-TurboID-A10 linker-PAP8) (Arabidopsis thaliana); assay: proximity labelling
[2] = molecular target: T1, stλP8 (cTP8-2xStrep-HA-TurboID-A10 linker-PAP8) (Arabidopsis thaliana); assay: affinity purification with mass spectrometry
[3] = molecular target: T2, sP8 (cTP8-2xStrep-PAP8) (Arabidopsis thaliana); assay: affinity purification with mass spectrometry
[4] = molecular target: stP8 (cTP8-2xStrep-HA-TurboID-PAP8) (Arabidopsis thaliana) (UniProt Q9XI19); assay: proximity labelling
[5] = molecular target: stP8 (cTP8-2xStrep-HA-TurboID-PAP8) (Arabidopsis thaliana) (UniProt Q9XI19); assay: affinity purification with mass spectrometry

Row | binding [1] | binding [2] | binding [3] | binding [4] | binding [5] | Molecule
1 | binds | binds | binds | – | – | PAP1 of Arabidopsis thaliana
2 | binds | binds | binds | binds | binds | AtRABE1B (from UniProt P17745 68-476)
3 | binds | binds | binds | – | – | pTAC18 of Arabidopsis thaliana
4 | binds | binds | binds | binds | binds | CPN60b2 (from UniProt Q9LJE4 51-596)
5 | binds | binds | binds | – | – | NusG/pTAC13 (Arabidopsis thaliana (endogenous))
6 | binds | binds | binds | binds | binds | PAP10 (thioredoxin-z) of Arabidopsis thaliana (protein, UniProt Q9M7X9 82-183) AQELQELVKGDRKVPLIVDFYATWCGPCILMAQELEMLAVEYESNAIIVKVDTDDEYEFARDMQVRGLPTLFFISPDPSKDAIRTEGLIPLQMMHDIIDNEM
7 | binds | binds | binds | binds | binds | PAP11 of Arabidopsis thaliana (protein, UniProt F4I3P9 41-772) AAGPARRNSYPNPADDDPPEAPEDSMHGVSKFQQIQRQAARARKLEEEDFEKNRNTYLSAIADVEDAAETGRDDEESGGDLFSDIDRAISMKRSEFVKQGLLKPNPPKTASLKKIGEEGNEEEGDVTDDVDELDEEEVVDLDEIDKLTGLTEISDEEDWVDEEGNTRINKKKEFGSDHQFEFDLDDFGESKARIVEPKFKMCLAELLDESKVVPISVYGDLDVEITGIQHDSRGVSAGDLFVCCLGSENFLSEADKRGAVAVVASKEIDIEDTLGCRALVIVEDTNAVLAALASSFYRHPSKNMSVIGVTGTDGKTTTTYLIKSLYEAMGVRTGMFSTVSCYIHGDNKLDTPNATMNPDAVLVQSLMAKMLHNGTESLVMEASPQELALGKCDEVDFDIAVFTNLTRENTDFRGTDEEYRDAEAKLFSRMVDPERHRKVVNIDDPNAAFFVQQGNPNVPVVTFAMENTKADVHPLKFELSLFETQVLVNTPQGILEISSGLLGRHNIYNILAAVAVGIAVGAPLEDIVRGVEEVDAVPGRCELIDEEQAFGVIVDHANTPDGLSRLLDSIRELKPRRIITVIGCEGENERGKRPLMTKIATEKSDVTMLTSDNPRNEDPLDILDDMLSGIGWTMQEYLKHGEHDYYPPLANGHRLFLHDIRRVAVRCAVAMGEEGDMVVVAGKGHEAYQLEGEKKEFYDDREECREALQYVDELHQAGIDTSEFPWRLPESH
8 | – | – | binds | – | – | CSP41b (protein, UniProt Q9SA52 51-378) SSEKKILIMGGTRFIGLFLSRILVKEGHQVTLFTRGKSPIAKQLPGESDQDFADFSSKILHLKGDRKDYDFVKSSLSAEGFDVVYDINGREAEEVEPILEALPKLEQYIYCSSAGVYLKSDILPHCEEDAVDPKSRHKGKLETESLLQSKGVNWTSIRPVYIYGPLNYNPVEEWFFHRLKAGRPIPVPNSGIQISQLGHVKDLATAFLNVLGNEKASREIFNISGEKYVTFDGLAKACAKAGGFPEPEIVHYNPKEFDFGKKKAFPFRDQHFFASVEKAKHVLGWKPEFDLVEGLTDSYNLDFGRGTFRKEADFTTDDMILSKKLVLQ
9 | binds | binds | binds | binds | binds | PAP12 of Arabidopsis thaliana (protein, UniProt Q8VZV9 33-161) CGIQRDDNGRRVWRRRTLTKKDDMLRYKMQRVPFVEEQVRKIREVGKVMTMDIEQLLLREDNRFEFVNSVAAEATEYVDKNRDEYGGSKKAIFHVLSNRVNDLGFDRPEAYVEADPYKPGPGYLLEYYT
10 | binds | binds | binds | binds | binds | PAP7 of Arabidopsis thaliana (protein, UniProt Q84JF5 63-483) ASEESSSSELETADPDFYKIGYVRSVRAYGVEFKEGPDGFGVYASKDIEPRRRARVIMEIPLELMITIRQKHPWMFFPDIVPIGHPIFDIINSTDPEIDWDIRLACLLLFSFDRDDHFWRLYGDFLPAADECSSLLLATEEDLAELQDPDLVSTIRQQQKRILDFWEKNWHSGVPLKIKRLAEDPERFIWAVSMAQTRCISMQTRVGALVQELNMMIPYADMLNHSFEPNCFLHWRPKDRMLEVMSNAGQDIKKGEEMTINYMPGQKNNMLMERYGFSTPVNPWDAIKFSGDSRIHLNSFLSVFNIYGLPEEYYHDSELSRGDTFVDGAVIAAARTLPTWSDIDLPPIPSAERKAVKELQDECRKMLAEYPTTAEQDQKLLDSMSEARTTFATAVKYRMHRKMFIGKIIKALDIYQERLLY
11 | binds | binds | binds | binds | binds | PEP core subunit α of Arabidopsis thaliana (protein, UniProt P56762 1-329) MVREKVKVSTRTLQWKCVESKRDSKRLYYGRFILSPLMKGQADTIGIAMRRALLGEIEGTCITRAKSENIPHDYSNIAGIQESVHEILMNLNEIVLRSNLYGTRNALICVQGPGYITARDIILPPAVEIIDNTQHIATLTEPIDLCIELKIERNRGYSLKMSNNFEDRSYPIDAVFMPVENANHSIHSYGNGNEKQEILFLEIWTNGSLTPKEALHQASRNLINLFIPFLHVEEETFYLENNQHQVTLPFFPFHNRLVNLRKKKKTKELAFQYIFIDQLELPPRIYNCLKKSNIHTLLDLLNNSQEDLIKIEHFHVEDVKKILDILEKK
12 | binds | binds | binds | binds | binds | PRIN2 of Arabidopsis thaliana (protein, UniProt Q9XIK0 70-179) AAEYKFPDPIPEFAEAETEKFRDHMLNKLSKRDLFEDSVDEIVGVCTEIFETFLRSEYGGPGTLLVIPFIDMADTLNERELPGGPQAARAAIKWAQDHVDKDWKEWTGTD
13 | binds | binds | binds | binds | binds | PAP9 of Arabidopsis thaliana (protein, UniProt Q9LU64 47-305) GVITAGFELKPPPYPLDALEPHMSRETLDYHWGKHHKTYVENLNKQILGTDLDALSLEEVVLLSYNKGNMLPAFNNAAQAWNHEFFWESIQPGGGGKPTGELLRLIERDFGSFEEFLERFKSAAASNFGSGWTWLAYKANRLDVANAVNPLPKEEDKKLVIVKTPNAVNPLVWDYSPLLTIDTWEHAYYLDFENRRAEYINTFMEKLVSWETVSTRLESAIARAVQREQEGTETEDEENPDDEVPEVYLDSDIDVSEVD
14 | binds | binds | binds | binds | binds | FLN2 of Arabidopsis thaliana (protein, UniProt F4I0K2 45-614) AAGRRKLSESAPLEEEGNDGNGAVVGKKPSKSVKRTTKKKVVVKDEPLEEISEFLVDNDDVLDKESIVSALKPKKTRTRKKAAAASSDVEEVKTEKKVRRKRTVKKDKDVEDDLATIMDAEVSDVEEALAVESTDTESEEEEIDLSKHEGEDISHTYGWPPLVCCFGSAQHAFVPSGRPANRLLDYELHERMRDAKWAPEKYIRAPGGCAGGVAIALASLGGKVAFMGKLGADDYGQAMLYYLNVCKVQTRSVKIDGKRVTACSTMKISKRGRLKSTCIKPCAEDSLSKSEINVDVLKEAKMFYFSTHSLLDKKMMSTTIQAIKISKQLGNVIFYDLNLPLPLWHSSEETKSFIQEVWNLADVIEITKQELEFLCGIEPTEEFDTENNDISKFVHYPPETVEQLWHENLKVLFVTNGTSKIHYYTKEHNGAVSGMEDVPITPFTRDMSASGDGIVAGLIRMLTVQPDLMNNKGYLERTARYAIECGIIDQWLLAQTRGYPPKDDMEEEEDDEEEDEVESDPNGIRSITEKEYRTSKPYDEPDGPYVMKPVEEREYKKLELVGSMFEDGSL
15 | binds | binds | binds | binds | binds | DJ1C (protein, UniProt Q8VY09 61-472) SSMSPGMVTTLDSDVGVGSSATTKKVLVPIGYGTEEIEAVVLVDVLRRAGADVTVASVEQKLEVEGSSGTRLLADVLISKCADQVYDLVALPGGMPGAVRLRDCEILEKIMKRQAEDKRLYGAISMAPAITLLPWGLLTRKRTTGHPAFFGKLPTFWAVKTNIQISGELTTSRGPGTSFQFALSLAEQLFGETTAKSIEEFLLLRDGYQNPKNKEFNSIDWSLDHTPRVLIPVANGSEAVELVSIADVLRRAKVDVTVSSVERSLRITAFQGTKIITDKLIGEAAESSYDLIILPGGHTGSERLQKSKILKKLLREQHESGRIYGATNSSSTVLHKHGLLKEKRTTVYPSESDEPMNQQMIEGAEVVIDGNVITSLGLATVTKFSLAIVSKLFGHARARSVSEGLVHEYPRQ
